Measurements: paper PMC12040169 (PLOS Biology, 2025)
The other results are listed elsewhere or left out.

Test system: T1, CTL2-GFP (C. trachomatis L2/434/Bu, GFP-expressing)
T1 construct: L2/434/Bu, GFP-expressing
Set-up: species or system HeLa; Intracellular C. trachomatis growth in HeLa cells, bulk GFP fluorescence relative to DMSO
Conditions: bulk GFP, single well; 28.5 h, 10 µM; inhibitor

SMILES | % of control remaining
CNC(=O)NC(=O)C(C)NCC1(c2cc(C)ccc2OC)CCOCC1 (centres unmarked) [CBK306318] | 110.709%
O=P(O)(O)Cc1ccccc1-c1ccccc1 [CBK012659] | 84.5632%
Brc1ncccc1OCc1ccccc1 [CBK001458] | 81.3688%
Cc1ccc(-c2nnc([C@H]3CCN(Cc4ccc(CO)o4)C3)o2)cc1 [CBK289399] | 120.184%
[O-][n+]1cc(-c2ccccc2)[n+]([O-])c2c1CCCC2 [CBK264847] | 100%
O=C(CN1CCNCC1)Nc1ccc(Oc2ccccc2)cc1 [CBK267191C] | 177.632%
Cc1nc2c(c(=O)[nH]1)CC[C@@H]1CN(C(=O)c3ccccc3F)C[C@H]21 [CBK284410] | 88.9893%
C=CCn1c(Cc2csc(NC(=O)c3ccc(OC(F)F)cc3)n2)n[nH]c1=S [CBK295338] | 134.357%
CN(C)S(=O)(=O)c1ccc(C(=O)C2=C(O)C(=O)N(Cc3cccnc3)C2c2ccc(F)cc2)cc1 (centres unmarked) [CBK264715] | 100%
O=C1NC2(CCc3ccccc31)CCN(C(=O)c1ccc(F)cc1)C2 (centres unmarked) [CBK285308] | 140.68%
O=C(NCc1ccccn1)c1cc2cc(F)ccc2[nH]1 [CBK107276] | 103.46%
COc1ccc(Cn2cnc3[nH]ncc3c2=O)cc1 [CBK288049] | 141.798%
Fc1ccc(N(CCCN2CCN(c3ncccn3)CC2)c2ccc(F)cc2)cc1 [CBK025127C] | 92.1998%
COc1ccc(Nc2nc(-c3cc(C(C)C)ccc3OC)cn3ccnc23)cn1 [CBK066354] | 176.033%
Cc1cc(S(=O)(=O)N2CCCCC2)ccc1OCC(=O)O [CBK269254] | 143.857%
COCc1ccc(C(=O)NCC2CCCOC2)o1 (centres unmarked) [CBK282188] | 142.903%
c1ccc(-c2cc(-c3ccccc3)n3nc(Cc4nc5nc(-c6ccccc6)cc(-c6ccccc6)n5n4)nc3n2)cc1 [CBK261017] | 111.614%
Cn1c(=O)c2c(nc(CN3CCOCC3)n2CCN2CCOCC2)n(C)c1=O [CBK269560] | 120.033%
CC(C)N(C(=O)c1ccccc1-c1cnn2cccnc12)C(C)C [CBK307701] | 92.6742%
CN(Cc1ccccc1)C(C#N)c1c[nH]c2ccccc12 (centres unmarked) [CBK087062] | 131.338%
CS(=O)(=O)Nc1ccc(-c2ccccc2)c2ccccc12 [CBK083741] | 151.472%
CC(C)NC(=O)C1CCCN(c2nc3ccccc3n2C)C1 (centres unmarked) [CBK282373] | 120.228%
O=C(NCCNc1cnccn1)c1cncc(Br)c1 [CBK304278] | 83.8703%
CCOC(=O)CNC(=O)c1cc2ccccc2c(=O)o1 [CBK058083] | 114.346%
CC(=O)c1ccc(-c2nccnc2NCC2CC2)s1 [CBK037975] | 109.118%
Cc1cc(C)nc(N/C(=N\C(=O)Nc2ccccc2)NCc2cccnc2)n1 [CBK132681] | 90.5859%
O=C(NCCC1=CCCCC1)Nc1ccc(SC(F)(F)F)cc1 [CBK043725] | 112.483%

Single values from the list.
% of control remaining with Fc1ccc(N(CCCN2CCN(c3ncccn3)CC2)c2ccc(F)cc2)cc1 [CBK025127C] is entered as 92.1998%
% of control remaining with [O-][n+]1cc(-c2ccccc2)[n+]([O-])c2c1CCCC2 [CBK264847] is entered as 100%
% of control remaining with Cc1cc(S(=O)(=O)N2CCCCC2)ccc1OCC(=O)O [CBK269254] is entered as 143.857%
% of control remaining with Cc1cc(C)nc(N/C(=N\C(=O)Nc2ccccc2)NCc2cccnc2)n1 [CBK132681] is entered as 90.5859%

Following part:

SMILES | % of control remaining
Cc1c(C(=O)O)c(-c2ccc(Cl)cc2)cn1CCO [CBK286959] | 130.268%
COc1ccccc1N1CCN(C(=O)CCC(=O)c2cccs2)CC1 [CBK091498] | 112.917%
COc1cc(C(=O)N2CCC(N(C)C)C2)ccc1Nc1cncc(-c2cc3ccccc3[nH]2)n1 (centres unmarked) [CBK161475] | 127.261%
Nc1nc(=O)c2cnc3ccc(C(=O)O)cc3c2s1 [CBK291239] | 159.45%
Cc1nnc2nc(-c3cccc(Cl)c3Cl)[nH]n12 [CBK263845] | 100%
Nc1ncc(-c2ccc(C(=O)N3CCOCC3)cc2)cc1C(=O)NCc1ccc(S(N)(=O)=O)cc1 [CBK158597] | 112.438%
Cc1nc(C)c(CC(=O)NC(c2ccncc2)c2cccs2)s1 (centres unmarked) [CBK281439] | 117.164%
COc1cc(NC(=S)P(=O)(c2ccccc2)c2ccccc2)c(OC)cc1Cl [CBK021976] | 111.012%
N#Cc1ccncc1NCc1ccccc1CN1CCCC1CO (centres unmarked) [CBK304021] | 162.212%
CC(C)CC(NC(=O)N1CCOc2ccc(Cl)cc2C1)c1ncnn1C (centres unmarked) [CBK306544] | 97.4733%
CC(=O)Nc1ccc(S(=O)(=O)Oc2ccc(/C=C3\SC(=N)NC3=O)cc2Cl)cc1 [CBK265357] | 102.753%
CC1=C[C@@H](CNC(=O)c2ccccn2)[C@H](C(C)C)C[C@H]1CC(=O)N1CCCC1 [CBK289207] | 102.728%
COc1ccc(C(=O)NNC(=O)c2cccc(Cl)c2)cc1OC [CBK261704] | 101.806%
CCS(=O)(=O)c1ccc2oc([C@H]3CCN(S(=O)(=O)c4ccccc4)C3)nc2c1 [CBK289382] | 124.395%
Cc1ccn(CC(=O)N2CC[C@H]3NC(=O)COc4ccccc4CCCC[C@@H]3C2)c(=O)c1 [CBK292045] | 118.749%
Oc1ccc(-n2cc(-c3ccsc3)nn2)cc1 [CBK113093] | 143.195%
CCOc1ccsc1C(=O)NC1Cc2ccccc2C1 [CBK200359] | 27.0076%
O=C(O)CCSc1nnc2[nH]c3ccccc3n12 [CBK265736] | 161.527%
CCCN1CCN(CC(=O)NCc2ccco2)CC1 [CBK270300] | 145.756%
COC(=O)CC1C(=O)NCCN1C(=O)COc1ccc(Cl)cc1 (centres unmarked) [CBK264938] | 100%
CCn1c2ccccc2n2c(SC(C)C(=O)O)nnc12 (centres unmarked) [CBK267079] | 157.767%
CCOc1ccc2c(c1)cc(C(=O)NCc1cc(CC)no1)n2C [CBK281553] | 106.67%
Cc1ccccc1-c1nnc(SC(C)C)n1CCN(C)S(C)(=O)=O [CBK200088] | 114.63%
CCOC(=O)c1ccc(N2C(=O)CC(N3CCN(c4ncccn4)CC3)C2=O)cc1 (centres unmarked) [CBK263306] | 102.013%
OCCn1c(S)nnc1-c1ccccc1 [CBK100025] | 103.57%
CN1CCC(C(=O)N2CCN(c3ncccn3)CC2)CC1 [CBK144511] | 102.375%
CC(=O)N1CCN(C(C(=O)O)c2c[nH]c3ccc(NC(=O)C(C)C)cc23)CC1 (centres unmarked) [CBK286634] | 103.013%

SMILES | % of control remaining
CCC(O)Cn1nc(CCSC)nc1-c1cc(=O)n(C)c2ccccc12 (centres unmarked) [CBK306596] | 140.396%
COc1ccc(S(=O)(=O)Nc2ccc(S(=O)(=O)Nc3nccs3)cc2)cc1C [CBK266011] | 181.631%
CC(=O)c1ccc2[nH]c(C(=O)O)c(CCN)c2c1 [CBK260944] | 109.899%
CN(C)CC(=O)Nc1cc(C(F)(F)F)ccc1Cl [CBK307420] | 118.557%
CCC(NS(=O)(=O)c1ccc(Br)cc1)C(=O)O (centres unmarked) [CBK264472] | 100%
CC1(C)CC(=O)c2sc(NC(=O)Cc3ccc(Cl)c(Cl)c3)nc2C1 [CBK144103] | 100%
CC(C)c1ccc(C(C)NC(=O)Cn2cc(C(=O)NC3CCCC3)ccc2=O)cc1 (centres unmarked) [CBK286121] | 105.071%
N#Cc1ccc(CNC(=O)N2CCCC(C(=O)O)C2)cc1 (centres unmarked) [CBK161352] | 133.882%
O=C(O)CC1(CC(=O)Nc2ccc(N3CCCC3=O)c(Cl)c2)CCCCC1 [CBK296664] | 157.178%
CN1C2C=C(N(CCc3ccccc3)C(=O)c3ccc(-c4ccccc4)cc3)CC1CC2 (centres unmarked) [CBK262596C] | 100%
c1nc(Sc2nccs2)cc(N2CCCC2)n1 [CBK093748] | 119.244%
Cc1ccc(S(=O)(=O)NCCSCc2cccc(Cl)c2)cc1[N+](=O)[O-] [CBK264116] | 100%
Cc1ccc(C2(CN3CCN(Cc4cncn4C)CC3)CC2)cc1 [CBK283308] | 126.542%
Cc1ccc(-n2c(SCC(=O)N3CCCCC3)nnc2-c2cc(Br)ccc2O)c(C)c1 [CBK269070] | 115.675%
COc1ccc(-c2c(O)n[nH]c2CCC2CCCC2)cc1 [CBK075126] | 129.32%
COc1cc(/C=C2\NC(=O)N(Cc3ccc([N+](=O)[O-])cc3)C2=O)ccc1OC(C)C(=O)O (centres unmarked) [CBK265348] | 108.017%
COCCC(=O)N1C[C@@H](c2ccccc2F)[C@@]2(CCCC(=O)N2)C1 [CBK283360] | 132.141%
O=C(O)c1cc(NC(=O)C2CCCO2)ccc1O (centres unmarked) [CBK269815] | 98.6234%
CCn1ncc(CN2CCC(O)(c3ccc(C)cc3)CC2)c1C [CBK282956] | 101.2%
COc1ccc2[nH]cc(CCNC(=O)c3ccc4nc[nH]c4c3)c2c1 [CBK122714] | 110.359%
Cc1cc(C)n(C(=O)c2cccc(S(=O)(=O)N3CCCCCC3)c2)n1 [CBK266727] | 123.534%
Cc1ccc2c(NC(=O)c3cc4c([nH]c3=O)CCC4)c(C)ccc2n1 [CBK281568] | 111.591%
O=C(C1CC1)N1CCc2cc(-c3cn4ccccc4n3)ccc21 [CBK285193] | 91.3839%
CC(C)(C)NC(=O)CCn1c(-c2ccncc2)cc2cccnc21 [CBK282620] | 108.941%
O=C(N/N=C/c1c[nH]c2ccc(Br)cc12)c1ccncc1 [CBK262798] | 108.144%
CC(C)(C)NC(=O)Cn1c(-c2cccs2)cc2cccnc21 [CBK282455] | 128.061%
